# Percent effect of library compounds

The chains behind the UniProt entries cited, without tags or fusion partners. Residues count along the entry.
UniProt A4I591, 1-473: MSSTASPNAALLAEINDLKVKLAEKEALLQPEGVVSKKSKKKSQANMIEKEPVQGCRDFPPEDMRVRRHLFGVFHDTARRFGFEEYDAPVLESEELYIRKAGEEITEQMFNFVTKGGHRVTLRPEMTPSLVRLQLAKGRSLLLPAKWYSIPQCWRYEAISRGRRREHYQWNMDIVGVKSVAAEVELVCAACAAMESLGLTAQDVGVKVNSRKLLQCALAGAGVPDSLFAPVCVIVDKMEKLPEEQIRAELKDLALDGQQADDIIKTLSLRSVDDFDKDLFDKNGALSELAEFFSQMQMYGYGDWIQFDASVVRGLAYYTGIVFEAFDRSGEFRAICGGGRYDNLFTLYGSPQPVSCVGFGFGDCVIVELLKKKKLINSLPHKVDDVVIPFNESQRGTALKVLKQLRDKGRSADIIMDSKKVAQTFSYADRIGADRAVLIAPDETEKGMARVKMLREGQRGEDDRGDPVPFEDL

Each number is a percent effect as filed. How 0% and 100% were set is not recorded. Most values in the screen are low, and negative values occur. This is an unselected part of the compounds tested.

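Enzyme assay of histidyl-tRNA synthetase; the read-out is not stated. Target: Histidine-tRNA ligase, Leishmania infantum (UniProt A4I591). Compounds at 30 µM. The record gives no direction; compounds that gave an IC50 in retests scored well above the rest, so higher reads as stronger inhibition. The assay is labelled LdHisRS but filed under L. infantum. About 69,000 compounds were tested under these conditions; 0.6% (about 410) showed 50% or more at least once.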

SMILES: CCn1cnnc1C1CCN(C(=O)c2ccoc2C)CC1
Percent Effect: 10.43

SMILES: Cc1cc(N2CCC(Cc3cccnc3)CC2)ncn1
Percent Effect: -1.408

SMILES: CN(C)C(=O)N1C[C@@H]2CC[C@H](C1)N(Cc1nnc(-c3ccco3)o1)C2
Percent Effect: -9.89

SMILES: CCCNC(c1cccnc1)c1ccc(F)c(C)c1 (stereo not drawn)
Percent Effect: 8.434

SMILES: CC[C@H]1NCCC[C@]12CCC(=O)N2Cc1ccncc1
Percent Effect: 7.317

SMILES: CCc1noc(C(C)N2CCN(c3ccc(C#N)cc3F)CC2)n1 (stereo not drawn)
Percent Effect: 20

SMILES: CCCN1CCCn2nc(CNS(=O)(=O)c3cccc(C#N)c3)cc2C1
Percent Effect: 20.95

SMILES: COCC1CN(Cc2ccc3c(c2)OCO3)Cc2ncn(C)c21 (stereo not drawn)
Percent Effect: 4.11

SMILES: Cc1nn(C)cc1C(=O)N1CCCC(n2nnc3cc(F)ccc32)C1 (stereo not drawn)
Percent Effect: -5.208

SMILES: CCOc1ncccc1CN1Cc2ncccc2C1=O
Percent Effect: 12.82

SMILES: O=C(O)C1CCN(C(=O)CCn2ccc3cc(Br)ccc32)CC1
Percent Effect: 2.632

SMILES: O=C(CC1CCN(c2cccnn2)CC1)NCCO
Percent Effect: 11.43

SMILES: c1cc2c(cc1CN(Cc1nc(C3CC3)no1)C1CCCC1)OCO2
Percent Effect: 8.929

SMILES: COc1cc2c(cc1OC)CCN(C(=O)Cn1nc(C)cc1C)CC2
Percent Effect: 16.13

SMILES: CN1CCN(C(=O)C2CCCc3[nH]ncc32)CC1 (stereo not drawn)
Percent Effect: 9.091

SMILES: CC(C)OCCCNC(=O)CS(=O)(=O)Cc1ccc(Cl)cc1
Percent Effect: 7.692

SMILES: COc1ncc(C2CC(=O)NCc3nc4ccccn4c32)cn1 (stereo not drawn)
Percent Effect: 20.95

SMILES: O=C(CCN1CCSCC1c1ccccc1)N1CCOCC1 (stereo not drawn)
Percent Effect: 13.7

SMILES: COCCN(Cc1cccnc1)S(=O)(=O)c1ccc(F)cc1C
Percent Effect: 11.61

SMILES: Cc1ccc(C(C(=O)NCCc2nc(C)cc(=O)[nH]2)N(C)C)cc1 (stereo not drawn)
Percent Effect: 9.677

SMILES: Cc1cccc(C)c1OCC(=O)NC(C)c1nnc2n1CCC2 (stereo not drawn)
Percent Effect: 14.46

SMILES: COCCN(C)C[C@@H]1CN(C(=O)c2ccc(C)c(Cl)c2)C[C@@H]1CO
Percent Effect: 11.24

SMILES: Cn1cc(C2CC(=O)NC23CCN(Cc2ccncc2)CC3)cn1 (stereo not drawn)
Percent Effect: 6.944

SMILES: Cc1nccnc1N1C[C@H]2CN(C3CCOCC3)C[C@@]2(C(=O)O)C1
Percent Effect: 14.52

SMILES: CCc1ccc(C(=O)O)cc1S(=O)(=O)Nc1ccc(F)c(C#N)c1
Percent Effect: 11.9

SMILES: CCOC(=O)Cc1csc(NC(=O)c2cc3n(n2)CCCO3)n1
Percent Effect: 28.57

SMILES: Cc1ccc(C)c(C(NC(=O)C2CC2)c2cccnc2)c1 (stereo not drawn)
Percent Effect: 14.56

SMILES: CC(C)CCC(C)NC(=O)CN1C=Nc2ccccc2S1(=O)=O (stereo not drawn)
Percent Effect: 7.895

SMILES: CN(C)S(=O)(=O)N1CCC(c2nnc(C(F)(F)F)o2)CC1
Percent Effect: 0

SMILES: COCCN1CCN(c2nc(C3CCCC3)nc3c2cnn3C)CC1
Percent Effect: 23.29

SMILES: CN(CC(O)CO)C(=O)c1coc(COc2cccc(F)c2)n1 (stereo not drawn)
Percent Effect: 25

SMILES: Cc1noc(CN2CCN(Cc3cccs3)CC2)n1
Percent Effect: 10.96

2 of the entries, repeated:

* COCCN(C)C[C@@H]1CN(C(=O)c2ccc(C)c(Cl)c2)C[C@@H]1CO : 11.24%
* COCCN1CCN(c2nc(C3CCCC3)nc3c2cnn3C)CC1 : 23.29%

Data taken from ChEMBL document CHEMBL3988442, “University of Dundee, Small-Polar-MMV Screening Library” (2021).